Binding data for one molecule are collected here from paper PMC12603114.

This assay concerns the target T1, Signal transducer and activator of transcription 1 (STAT1), from plasmid, P42224.
T1 chain: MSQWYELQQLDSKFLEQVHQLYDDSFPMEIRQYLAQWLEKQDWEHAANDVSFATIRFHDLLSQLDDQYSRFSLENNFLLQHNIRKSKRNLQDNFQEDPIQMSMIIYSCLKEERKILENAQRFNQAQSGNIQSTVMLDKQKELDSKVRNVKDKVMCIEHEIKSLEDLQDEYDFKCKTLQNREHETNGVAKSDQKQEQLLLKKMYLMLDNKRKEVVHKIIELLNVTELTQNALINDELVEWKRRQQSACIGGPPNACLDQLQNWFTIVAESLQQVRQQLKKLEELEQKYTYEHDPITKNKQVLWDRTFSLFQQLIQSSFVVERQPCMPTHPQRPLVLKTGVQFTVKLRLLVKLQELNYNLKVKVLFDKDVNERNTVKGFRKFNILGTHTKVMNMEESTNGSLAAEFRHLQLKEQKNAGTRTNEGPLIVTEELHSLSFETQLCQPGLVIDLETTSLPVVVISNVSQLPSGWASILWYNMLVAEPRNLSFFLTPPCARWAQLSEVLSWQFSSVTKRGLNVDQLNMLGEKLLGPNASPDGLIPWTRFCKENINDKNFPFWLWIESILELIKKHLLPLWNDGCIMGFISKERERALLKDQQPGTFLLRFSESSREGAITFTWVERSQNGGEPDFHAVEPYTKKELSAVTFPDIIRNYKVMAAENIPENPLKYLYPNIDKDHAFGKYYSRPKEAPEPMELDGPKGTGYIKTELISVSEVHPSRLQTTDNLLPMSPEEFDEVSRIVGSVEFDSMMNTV
As to the kind of experiment: co-IP; HEK293T cells transfected with the indicated plasmids, treated with IFNγ (100 ng/mL) or IFNβ (100 ng/mL); precipitated with S-tag beads at 4 °C; with or without co-expressed PTIR1. As to conditions: remark: other sources report otherwise.

Results are given in words; binding and its absence hold for the method and conditions named. In cells and extracts the contact can be indirect. Some binding calls cover weakened binding; strength is not graded here.

B1: Signal transducer and activator of transcription 1 (STAT1), from plasmid, P42224 1-750 (protein)
chain: MSQWYELQQLDSKFLEQVHQLYDDSFPMEIRQYLAQWLEKQDWEHAANDVSFATIRFHDLLSQLDDQYSRFSLENNFLLQHNIRKSKRNLQDNFQEDPIQMSMIIYSCLKEERKILENAQRFNQAQSGNIQSTVMLDKQKELDSKVRNVKDKVMCIEHEIKSLEDLQDEYDFKCKTLQNREHETNGVAKSDQKQEQLLLKKMYLMLDNKRKEVVHKIIELLNVTELTQNALINDELVEWKRRQQSACIGGPPNACLDQLQNWFTIVAESLQQVRQQLKKLEELEQKYTYEHDPITKNKQVLWDRTFSLFQQLIQSSFVVERQPCMPTHPQRPLVLKTGVQFTVKLRLLVKLQELNYNLKVKVLFDKDVNERNTVKGFRKFNILGTHTKVMNMEESTNGSLAAEFRHLQLKEQKNAGTRTNEGPLIVTEELHSLSFETQLCQPGLVIDLETTSLPVVVISNVSQLPSGWASILWYNMLVAEPRNLSFFLTPPCARWAQLSEVLSWQFSSVTKRGLNVDQLNMLGEKLLGPNASPDGLIPWTRFCKENINDKNFPFWLWIESILELIKKHLLPLWNDGCIMGFISKERERALLKDQQPGTFLLRFSESSREGAITFTWVERSQNGGEPDFHAVEPYTKKELSAVTFPDIIRNYKVMAAENIPENPLKYLYPNIDKDHAFGKYYSRPKEAPEPMELDGPKGTGYIKTELISVSEVHPSRLQTTDNLLPMSPEEFDEVSRIVGSVEFDSMMNTV
Turning to B1, the binding entry is listed as “binds”.
